Some of these results come from one statement about several compounds together. For at least one compound, name, drawing or mass did not settle the structure.
System: cabbage moth (Plutella xylostella)
Test: Insecticidal test against cabbage moth (leaf dip)
Format: in vivo
Conditions: second instar larva, after 6 days

SMILES	insecticidal rate (rate of dead insects) (100 ppm (*))	also measured
CC(NC(=O)NCC(F)(F)F)c1ccc(C2=NOC(c3cc(Cl)c(Cl)c(Cl)c3)(C(F)(F)F)C2)cc1 (stereo not shown) [4-039]		insecticidal rate (rate of dead insects) (10 ppm (**)): ≥ 80%
COCCNC(=O)NCc1ccc(C2=NOC(c3cc(Cl)c(Cl)c(Cl)c3)(C(F)(F)F)C2)cc1Cl (stereo not shown) [4-040]		insecticidal rate (rate of dead insects) (10 ppm (**)): ≥ 80%
CSCCNC(=O)NCc1ccc(C2=NOC(c3cc(Cl)c(Cl)c(Cl)c3)(C(F)(F)F)C2)cc1Cl (stereo not shown) [4-041]	≥ 80%	
N#CCNC(=O)NCc1ccc(C2=NOC(c3cc(Cl)c(Cl)c(Cl)c3)(C(F)(F)F)C2)cc1Cl (stereo not shown) [4-046]		insecticidal rate (rate of dead insects) (10 ppm (**)): ≥ 80%
COC(=O)CNC(=O)NCc1ccc(C2=NOC(c3cc(Cl)c(Cl)c(Cl)c3)(C(F)(F)F)C2)cc1Cl (stereo not shown) [4-047]		insecticidal rate (rate of dead insects) (500 ppm): ≥ 80%
CCOC(=O)CNC(=O)NCc1ccc(C2=NOC(c3cc(Cl)c(Cl)c(Cl)c3)(C(F)(F)F)C2)cc1Cl (stereo not shown) [4-048]		insecticidal rate (rate of dead insects) (500 ppm): ≥ 80%
O=C(CNC(=O)NCc1ccc(C2=NOC(c3cc(Cl)c(Cl)c(Cl)c3)(C(F)(F)F)C2)cc1Br)NCC(F)(F)F (stereo not shown) [4-049]	≥ 80%	
C[Si](C)(C)CNC(=O)NCc1ccc(C2=NOC(c3cc(Cl)c(Cl)c(Cl)c3)(C(F)(F)F)C2)cc1Cl (stereo not shown) [4-050]	≥ 80%	
C=CCNC(=O)NCc1ccc(C2=NOC(c3cc(Cl)c(Cl)c(Cl)c3)(C(F)(F)F)C2)cc1Cl (stereo not shown) [4-051]		insecticidal rate (rate of dead insects) (10 ppm (**)): ≥ 80%
C#CCNC(=O)NCc1ccc(C2=NOC(c3cc(Cl)cc(Cl)c3)(C(F)(F)F)C2)cc1Cl (stereo not shown) [4-052]		insecticidal rate (rate of dead insects) (10 ppm (**)): ≥ 80%
C#CCNC(=O)NCc1ccc(C2=NOC(c3cc(Cl)c(Cl)c(Cl)c3)(C(F)(F)F)C2)cc1Cl (stereo not shown) [4-053]		insecticidal rate (rate of dead insects) (10 ppm (**)): ≥ 80%
C#CCNC(=O)NCc1ccc(C2=NOC(c3cc(Cl)c(Cl)c(Cl)c3)(C(F)(F)F)C2)cc1[N+](=O)[O-] (stereo not shown) [4-054]		insecticidal rate (rate of dead insects) (10 ppm (**)): ≥ 80%
C#CCNC(=O)NC(C)c1ccc(C2=NOC(c3cc(Cl)c(Cl)c(Cl)c3)(C(F)(F)F)C2)cc1 (stereo not shown) [4-055]		insecticidal rate (rate of dead insects) (10 ppm (**)): ≥ 80%
C#CCN(C)C(=O)NCc1ccc(C2=NOC(c3cc(Cl)c(Cl)c(Cl)c3)(C(F)(F)F)C2)cc1Cl (stereo not shown) [4-056]		insecticidal rate (rate of dead insects) (10 ppm (**)): ≥ 80%
CC(NC(=O)NCc1ccccc1)c1ccc(C2=NOC(c3cc(Cl)c(Cl)c(Cl)c3)(C(F)(F)F)C2)cc1 (stereo not shown) [4-058]		insecticidal rate (rate of dead insects) (500 ppm): ≥ 80%
O=C(NCc1ccccc1F)NCc1ccc(C2=NOC(c3cc(Cl)c(Cl)c(Cl)c3)(C(F)(F)F)C2)cc1Cl (stereo not shown) [4-059]		insecticidal rate (rate of dead insects) (500 ppm): ≥ 80%
O=C(NCc1cccc(F)c1)NCc1ccc(C2=NOC(c3cc(Cl)c(Cl)c(Cl)c3)(C(F)(F)F)C2)cc1Cl (stereo not shown) [4-060]	≥ 80%	
O=C(NCc1ccc(F)cc1)NCc1ccc(C2=NOC(c3cc(Cl)c(Cl)c(Cl)c3)(C(F)(F)F)C2)cc1Cl (stereo not shown) [4-061]	≥ 80%	
O=C(NCc1ccc(C(F)(F)F)cc1)NCc1ccc(C2=NOC(c3cc(Cl)c(Cl)c(Cl)c3)(C(F)(F)F)C2)cc1Cl (stereo not shown) [4-065]	≥ 80%	
Cc1ccc(CNC(=O)NCc2ccc(C3=NOC(c4cc(Cl)c(Cl)c(Cl)c4)(C(F)(F)F)C3)cc2Cl)o1 (stereo not shown) [4-066]	≥ 80%	
O=C(NCc1cccs1)NCc1ccc(C2=NOC(c3cc(Cl)c(Cl)c(Cl)c3)(C(F)(F)F)C2)cc1Cl (stereo not shown) [4-067]		insecticidal rate (rate of dead insects) (500 ppm): ≥ 80%
O=C(NCc1cscn1)NCc1ccc(C2=NOC(c3cc(Cl)c(Cl)c(Cl)c3)(C(F)(F)F)C2)cc1Cl (stereo not shown) [4-068]	≥ 80%	
O=C(NCc1ccccn1)NCc1ccc(C2=NOC(c3cc(Cl)c(Cl)c(Cl)c3)(C(F)(F)F)C2)cc1Cl (stereo not shown) [4-069]	≥ 80%	

SMILES	insecticidal rate (rate of dead insects) (100 ppm (*))	also measured
CC(NC(=O)NCc1ccccn1)c1ccc(C2=NOC(c3cc(Cl)c(Cl)c(Cl)c3)(C(F)(F)F)C2)cc1 (stereo not shown) [4-070]	≥ 80%	
O=C(NCc1cccnc1)NCc1ccc(C2=NOC(c3cc(Cl)c(Cl)c(Cl)c3)(C(F)(F)F)C2)cc1Cl (stereo not shown) [4-071]		insecticidal rate (rate of dead insects) (500 ppm): ≥ 80%
O=C(NCc1ccncc1)NCc1ccc(C2=NOC(c3cc(Cl)c(Cl)c(Cl)c3)(C(F)(F)F)C2)cc1Cl (stereo not shown) [4-072]	≥ 80%	
CC(NC(=O)NC(C#N)c1ccccc1)c1ccc(C2=NOC(c3cc(Cl)c(Cl)c(Cl)c3)(C(F)(F)F)C2)cc1 (stereo not shown) [4-073]		insecticidal rate (rate of dead insects) (500 ppm): ≥ 80%
O=C(NCc1ccc(C2=NOC(c3cc(Cl)c(Cl)c(Cl)c3)(C(F)(F)F)C2)cc1Cl)N1CCCC1 (stereo not shown) [4-074]		insecticidal rate (rate of dead insects) (10 ppm (**)): ≥ 80%
CC(NC(=O)N1CCCC1)c1ccc(C2=NOC(c3cc(Cl)c(Cl)c(Cl)c3)(C(F)(F)F)C2)cc1 (stereo not shown) [4-075]	≥ 80%	
COC(=O)C1CCCN1C(=O)NCc1ccc(C2=NOC(c3cc(Cl)c(Cl)c(Cl)c3)(C(F)(F)F)C2)cc1Cl (stereo not shown) [4-076]		insecticidal rate (rate of dead insects) (500 ppm): ≥ 80%
CNC(=O)C1CCCN1C(=O)NCc1ccc(C2=NOC(c3cc(Cl)c(Cl)c(Cl)c3)(C(F)(F)F)C2)cc1Cl (stereo not shown) [4-077]	≥ 80%	
O=C(NCc1ccc(C2=NOC(c3cc(Cl)c(Cl)c(Cl)c3)(C(F)(F)F)C2)cc1Cl)N1CCCCC1 (stereo not shown) [4-078]		insecticidal rate (rate of dead insects) (500 ppm): ≥ 80%
O=C(NCc1ccc(C2=NOC(c3cc(Cl)c(Cl)c(Cl)c3)(C(F)(F)F)C2)cc1Cl)N1CCOCC1 (stereo not shown) [4-079]	≥ 80%	
O=C(NCc1ccc(C2=NOC(c3cc(Cl)cc(Cl)c3)(C(F)(F)F)C2)cc1Cl)N1CCSC1 (stereo not shown) [4-080]	≥ 80%	
O=C(NCc1ccc(C2=NOC(c3cc(Cl)c(Cl)c(Cl)c3)(C(F)(F)F)C2)cc1Cl)N1CCSCC1 (stereo not shown) [4-081]		insecticidal rate (rate of dead insects) (10 ppm (**)): ≥ 80%
O=C(NCc1ccc(C2=NOC(c3cc(Cl)c(Cl)c(Cl)c3)(C(F)(F)F)C2)cc1Cl)N1CC[S+]([O-])CC1 (stereo not shown) [4-082]	≥ 80%	
O=C(NCc1ccc(C2=NOC(c3cc(Cl)c(Cl)c(Cl)c3)(C(F)(F)F)C2)cc1Cl)N1CCS(=O)(=O)CC1 (stereo not shown) [4-083]	≥ 80%	
CC(NC(=O)N1CCSCC1)c1ccc(C2=NOC(c3cc(Cl)c(Cl)c(Cl)c3)(C(F)(F)F)C2)cc1 (stereo not shown) [4-084]	≥ 80%	
O=C(NCc1ccc(C2=NOC(c3cc(Cl)c(Cl)c(Cl)c3)(C(F)(F)F)C2)cc1Cl)NC1=NCCS1 (stereo not shown) [4-089]	≥ 80%	
CONC(=O)NCc1ccc(C2=NOC(c3cc(Cl)c(Cl)c(Cl)c3)(C(F)(F)F)C2)cc1Cl (stereo not shown) [4-096]		insecticidal rate (rate of dead insects) (10 ppm (**)): ≥ 80%
CON(C)C(=O)NCc1ccc(C2=NOC(c3cc(Cl)c(Cl)c(Cl)c3)(C(F)(F)F)C2)cc1Cl (stereo not shown) [4-097]		insecticidal rate (rate of dead insects) (10 ppm (**)): ≥ 80%
CCONC(=O)NCc1ccc(C2=NOC(c3cc(Cl)cc(Cl)c3)(C(F)(F)F)C2)cc1Cl (stereo not shown) [4-098]	≥ 80%	
NNC(=O)NCc1ccc(C2=NOC(c3cc(Cl)c(Cl)c(Cl)c3)(C(F)(F)F)C2)cc1Cl (stereo not shown) [4-100]		insecticidal rate (rate of dead insects) (500 ppm): ≥ 80%
CCN(N)C(=O)NCc1ccc(C2=NOC(c3cc(Cl)c(Cl)c(Cl)c3)(C(F)(F)F)C2)cc1Cl (stereo not shown) [4-101]	≥ 80%	
CC(C)(C)N(N)C(=O)NCc1ccc(C2=NOC(c3cc(Cl)c(Cl)c(Cl)c3)(C(F)(F)F)C2)cc1Cl (stereo not shown) [4-102]	≥ 80%	
NN(Cc1ccccc1)C(=O)NCc1ccc(C2=NOC(c3cc(Cl)c(Cl)c(Cl)c3)(C(F)(F)F)C2)cc1Cl (stereo not shown) [4-103]	≥ 80%	

Reference: patent US7947715B2, “Isoxazoline compound and pesticide” (Nissan Chemical Industries, Ltd., priority 2006, dated 2011)
